This experiment has as its target GPRC5A (UniProt Q8NFJ5). Nature of the experiment: affinity purification with mass spectrometry.

Sequences of proteins named here, by UniProt entry; tags and fusion partners are left off. A change or cut given only in a name is not applied to a line headed by its entry.
UniProt Q8NFJ5, whole entry, stated change not applied: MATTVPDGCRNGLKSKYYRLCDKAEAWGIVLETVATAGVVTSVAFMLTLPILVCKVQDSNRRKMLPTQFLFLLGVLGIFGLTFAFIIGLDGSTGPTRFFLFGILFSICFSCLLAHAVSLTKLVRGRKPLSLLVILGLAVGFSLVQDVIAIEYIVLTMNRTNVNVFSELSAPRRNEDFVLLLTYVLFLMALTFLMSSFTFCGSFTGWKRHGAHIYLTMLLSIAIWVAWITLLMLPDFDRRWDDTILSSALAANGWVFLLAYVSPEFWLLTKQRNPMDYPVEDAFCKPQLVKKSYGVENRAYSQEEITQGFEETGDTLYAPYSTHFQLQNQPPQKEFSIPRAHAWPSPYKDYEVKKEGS

Results are given in words; binding and its absence hold for the method and conditions named. In cells and extracts the contact can be indirect. These calls come from enrichment with a bait or labelling near it, and not all partners need be listed.

Gγ12 (from UniProt Q9UBI6 1-72): the binding entry is “binds”.

(Values after doi:10.1101/2020.05.26.114710.)
